Among the data in PubChem BioAssay AID1347426 (Functional Genomics Laboratory (NCATS/FGL), 2020) are median seed-adjusted z-score values, retold here.

Hit rate of the full screen: of about 31,000 sequences, about 1,400 (4.5%) were called active.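 Rule for the calls: active = median seed-adjusted z-score above 1 or below -1; inactive = the rest.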 Some of the results follow.

This assay can be described thus: Novel Modifiers of Survival Motor Neuron (SMN) Protein: Gene Identification via Genome-wide siRNA Screen.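 Note: luminescence tracks full-length SMN protein made from the SMN2 reporter.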 The settings on record: HEK293T SMN2-luciferase reporter, siRNA knockdown, 72 h; actives lie on both sides. Put shortly: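 HEK293T cells stably carrying an SMN2 promoter/splicing cassette–luciferase reporter were reverse-transfected with 1 pmol siRNA per well (druggable-genome library, 3 siRNAs per gene) and grown 72 h at 37 °C. Luminescence, normalized to negative-control siRNA and log10-transformed, was scored as MAD.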
A general note: Reporter assays use an easily measured gene product as a stand-in for the process of interest.
For GAACUGUCGGCGGAACAUUTT against MFAP3L, the median seed-adjusted z-score was active: 1.03.

Regarding CGUAUAUAGAGUUCUCAGATT against PABPN1, the median seed-adjusted z-score was inactive: -0.757.

For CAAUCCAUGUCAUAGGGAATT against ZNF702, the median seed-adjusted z-score was inactive: 0.204.

As for GAACAAAGGCUACCUGGUATT against GPR137, the median seed-adjusted z-score was inactive: 0.564.

As for CUAUCAAGGUUUUGGUACATT against SCN7A, the median seed-adjusted z-score is inactive: 0.

With GAGGAAAGCCUAUAUUAUUTT against TPTE2, the median seed-adjusted z-score was inactive: -0.0675.

For GCGAUAUUGUCAUUAUUGATT against MTAP, the median seed-adjusted z-score is inactive: -0.0621.

Turning to GCUGUCAUUUUGACUAAUATT against CDH19, the median seed-adjusted z-score was inactive: -0.409.

For the sequence GCACUGAAGCCCAAGCUUUTT against IKZF4, the median seed-adjusted z-score is inactive: -0.426.

As to AGAUGAAUGUGUGCGACAATT against U2AF1L4, the median seed-adjusted z-score was inactive: 0.

Take UGUUGGUUUUGUGAUCUUUTT against RBPMS2: the median seed-adjusted z-score was inactive: -0.485.

Turning to CCAAUGAGAUGGUCAAGAATT against CDO1, the median seed-adjusted z-score is inactive: 0.336.

Turning to GCAUAUAGGCGGGAGCAGATT against POLE3, the median seed-adjusted z-score is inactive: -0.0612.

As to ACACUUUUGUUAUAAGCUATT against SKI, the median seed-adjusted z-score is inactive: -0.139.

GCAUCAUGUUCUCAGCUGUTT against SLC2A6: the median seed-adjusted z-score was inactive: 0.616.

For the sequence GAAGAGUACUGAACCUGGATT against GTF2H4, the median seed-adjusted z-score is inactive: -0.261.

As for GACUCAAUGGUUUGCAUUATT against CTDP1, the median seed-adjusted z-score was active: -2.29.

CAAUAGUUGACUACAUAGATT against 10-Sep: the median seed-adjusted z-score was inactive: 0.571.

GAGAGACGGUGAAUAAAAATT against METTL6: the median seed-adjusted z-score was inactive: -0.415.

In the case of CAGUGAGACAUCUAAGAGATT against ACSM2A, the median seed-adjusted z-score is inactive: -0.178.

On to AGGCUGAACGUCUCACUGATT against SPRR1A, for which the median seed-adjusted z-score is inactive: -0.0536.

CAGUAGUUCUUCUAAUCCATT against WWP1: the median seed-adjusted z-score was inactive: -0.442.

For CAACUAUGUGCAUUAAGGATT against CYP4F22, the median seed-adjusted z-score is inactive: 0.383.

Regarding GAAUUGAAACGAGCUAGAATT against TAF13, the median seed-adjusted z-score was inactive: -0.919.

For the sequence CAACGAGAGCGGUGAAGAATT against CCR2, the median seed-adjusted z-score is inactive: -0.00107.

Turning to CAACGGACGUGGAAAUACUTT against UPF1, the median seed-adjusted z-score is inactive: 0.253.

Take GGAGAAGAUACAAAGCGCATT against MED21: the median seed-adjusted z-score is active: -1.3.

Take GCAGUAUAGAGGUAUCUGUTT against FUBP3: the median seed-adjusted z-score is inactive: 0.108.

AGCAGAUGCUCUACACCAATT against ARHGAP27: the median seed-adjusted z-score is inactive: -0.777.

In the case of GGACUGAGCUUCUCAAUGUTT against FOLR1, the median seed-adjusted z-score is active: -1.31.

GAUUGUAGUGUAUCAAGAATT against KIAA1804: the median seed-adjusted z-score was inactive: -0.211.

GAACAAAAAUUGAACACUUTT against SCP2: the median seed-adjusted z-score was inactive: 0.413.

For the sequence GACUGAGAGUUCUUGAGGATT against GJA9, the median seed-adjusted z-score was inactive: -0.00119.

As to CCACCAACCUAGGAGUUGUTT against GRM5, the median seed-adjusted z-score is inactive: -0.227.

Consider GGAUGAGUAUGGACAGUUUTT against PGC, for which the median seed-adjusted z-score was inactive: 0.884.

As to GCAAAUGACUUGGAGUGUUTT against DNER, the median seed-adjusted z-score is inactive: -0.316.

Take CGGUGUACAAGGCGACUUATT against MOS: the median seed-adjusted z-score was inactive: 0.105.

On to GGUAAGGUAGAGUCAAUUATT against ATP6V1A, for which the median seed-adjusted z-score is inactive: -0.0106.

Take GGCAUACCAGGAGACAAUATT against RAG2: the median seed-adjusted z-score is inactive: 0.138.

For GCAUAUACCAUCGCUGUAATT against SUPT16H, the median seed-adjusted z-score was active: 1.2.

Turning to GGAUUAGCGAGAAGAAAAUTT against CSNK1D, the median seed-adjusted z-score was inactive: 0.202.

As for GCAUGAACGACCCAGAAUATT against RNF31, the median seed-adjusted z-score is inactive: -0.687.

Regarding CAUCCACAACCUUGAGGAATT against SIGLEC12, the median seed-adjusted z-score is inactive: 0.226.

As for AGCAAGAAGUGGACAUAGATT against MXD4, the median seed-adjusted z-score was inactive: 0.688.

Consider UCCUAAGGCUUAUGAAGUUTT against ADH1B, for which the median seed-adjusted z-score is inactive: 0.325.

With GCUGACGAAUUCAAAGUCATT against APOA4, the median seed-adjusted z-score is inactive: 0.195.

In the case of CCUUAGUACUCUUCUAGCATT against MSX1, the median seed-adjusted z-score is inactive: 0.757.

GGUUUCUAAUGAUAACAAATT against PCDHB12: the median seed-adjusted z-score was inactive: -0.0664.

Take CACUUGCUAAGGAUCCUAATT against PPT1: the median seed-adjusted z-score is inactive: 0.727.

On to ACAGCGACCUUGCAAAGAATT against ZNF496, for which the median seed-adjusted z-score is inactive: -0.971.

For the sequence GGAUAUCACAGAAGGAUAUTT against ANXA4, the median seed-adjusted z-score is inactive: -0.0932.

For GGAUGAUGACAGUCACGAATT against CARD11, the median seed-adjusted z-score is inactive: 0.22.

On to CACAGAUCAUUAUCUAAAUTT against LONP2, for which the median seed-adjusted z-score is active: 1.52.

GGUGGAAUUUUCAAGAUAATT against RGN: the median seed-adjusted z-score is inactive: 0.132.

In the case of GGAUCUAUUUUGGACCGAATT against ABCE1, the median seed-adjusted z-score was inactive: -0.0527.

With UGAUGAUGGGUGUCCAUUUTT against DMRT3, the median seed-adjusted z-score is inactive: 0.

Take GGAAUCUGCUUACAGGUCATT against IPO7: the median seed-adjusted z-score was inactive: -0.143.

CCCUUGCCCUAGAUAGUUUTT against HYAL2: the median seed-adjusted z-score is inactive: 0.056.

For the sequence GUACCGGAGGGAUAUCAGATT against CDH18, the median seed-adjusted z-score is inactive: 0.21.

In the case of CGAUUAUGUUUGGUCCAGATT against CANX, the median seed-adjusted z-score is inactive: 0.471.

For AGACAUUAAAGAAUGCAUATT against LHX4, the median seed-adjusted z-score was inactive: 0.0795.

Turning to AGUUCUUGGUUAUUGGAAATT against RAB4A, the median seed-adjusted z-score is inactive: 0.0022.

As to GCAUUGGACUCAUCACCAATT against GPR12, the median seed-adjusted z-score is inactive: 0.437.

In the case of CAUCUAUCUGGAGAGCAAATT against JMJD3, the median seed-adjusted z-score was inactive: 0.871.

Regarding GGCCCUGAUUGAUCAUGGATT against CYP2C18, the median seed-adjusted z-score was inactive: 0.229.

Consider CCCAAUUCAGAUUACUACATT against POLN, for which the median seed-adjusted z-score was inactive: -0.129.

In the case of CCUAUCUUGUGGACAACAATT against PI4K2B, the median seed-adjusted z-score is inactive: 0.0345.

For CUAUGGAUGUUGAUGUAGATT against SIN3A, the median seed-adjusted z-score is inactive: -0.384.

Consider GAUGGAGUGUCGGAACUCATT against EIF4EBP1, for which the median seed-adjusted z-score was inactive: -0.161.

GGGAUUGAGUUAAAACUAUTT against SOX7: the median seed-adjusted z-score was inactive: -0.387.

Take GUAUCAUAACAUUCGGGUATT against SSH2: the median seed-adjusted z-score was inactive: 0.357.

With AGGCUGUUGUUAUAGCUCUTT against ZP4, the median seed-adjusted z-score is inactive: 0.0498.

GAGGGAGAGUAGAUCCACATT against LAIR1: the median seed-adjusted z-score is inactive: -0.0897.

Consider GAAUGGGUUUGAAGGUAGATT against LARS, for which the median seed-adjusted z-score is inactive: -0.788.

CACUUUAGAUGAUAUCAGATT against PPP3CA: the median seed-adjusted z-score is inactive: 0.74.

GCGUGAAGAUCAAUCAUUUTT against CACNG8: the median seed-adjusted z-score was inactive: 0.214.

As for CGAUGUAUCUCCUAGGCUATT against COPB2, the median seed-adjusted z-score is inactive: -0.61.

For GGAUCGCUGUCUCUAACUUTT against RRM1, the median seed-adjusted z-score is active: -5.51.

For ACAAGCACCUAGACCAUGATT against ANGPTL4, the median seed-adjusted z-score was active: 1.37.

In the case of CGGGUUUCAUCAAAGUGCATT against RASSF5, the median seed-adjusted z-score was inactive: 0.11.

On to ACUACUUUGGAAUCCCAUATT against ARSG, for which the median seed-adjusted z-score was inactive: -0.133.

With CUACAGGUUUAUAUCCAUATT against EMG1, the median seed-adjusted z-score is inactive: -0.0627.

As to CUACAACAUCAACACCUAUTT against OTOG, the median seed-adjusted z-score was inactive: -0.344.

With ACCUCUCGGUAGUAGAUCUTT against MCHR1, the median seed-adjusted z-score was inactive: -0.42.

In the case of CAAGGGAGGUUAUAGUGAATT against ZNF479, the median seed-adjusted z-score was inactive: -0.269.

Regarding GCUUUGGGAUGACCGCUUATT against TSC22D3, the median seed-adjusted z-score was inactive: 0.0129.

As to GGACACUGAGUUUCUUGAATT against PNMA2, the median seed-adjusted z-score is inactive: 0.629.

On to CAUCUAGUGCUGUAACGGATT against RNF111, for which the median seed-adjusted z-score was inactive: -0.0687.

In the case of CGUGCUCUGUGGUAAACGATT against THOP1, the median seed-adjusted z-score is inactive: 0.643.

Regarding AGAGGACCCAGAUUGUCUATT against RDBP, the median seed-adjusted z-score is inactive: 0.975.

Turning to GACUGUACCGGAUCACAGATT against VAV1, the median seed-adjusted z-score is inactive: 0.215.

As for ACCACAACAUAGUCAAUUUTT against AUP1, the median seed-adjusted z-score was inactive: 0.305.

GAAAGUCGUGGAUUUCCUATT against TICAM2: the median seed-adjusted z-score was inactive: -0.256.

Take GAAGAAUGCAGAAACUGUUTT against PARG: the median seed-adjusted z-score was inactive: 0.

Consider GCCUCUACUUCAUAGUGCUTT against GPR141, for which the median seed-adjusted z-score is inactive: -0.777.

As to GGAUCUACGUGUACGUCAATT against LPAR3, the median seed-adjusted z-score is inactive: -0.3.

Regarding AGGGCUUCAUUAAAGAAGATT against KCNA5, the median seed-adjusted z-score is inactive: 0.206.

Take CGGUUGCUUCAGGAACUUATT against TGFB1I1: the median seed-adjusted z-score was inactive: 0.887.

On to GAUAGGAUGUGACAAUGAATT against ING2, for which the median seed-adjusted z-score is inactive: 0.126.

In the case of CCAUAUUGGUGUUGGACGATT against ASAH2, the median seed-adjusted z-score is inactive: 0.615.

As for GAGUAGCAGUGAUCCUAGATT against SERINC1, the median seed-adjusted z-score was inactive: -0.255.

As to GGACUUCGCCUACGACUCATT against ETV4, the median seed-adjusted z-score is inactive: -0.186.

Regarding UCAGUCCUCUCACCACUUUTT against OAS1, the median seed-adjusted z-score was inactive: 0.442.

For GGAGAACUACCAGAACCUUTT against ZNF74, the median seed-adjusted z-score is active: 1.17.

Regarding GGAACAGCAUUAUGAUAGATT against CAB39, the median seed-adjusted z-score is inactive: -0.144.

As to GUACGUUACUGACAAUGAUTT against RCBTB1, the median seed-adjusted z-score is inactive: 0.

For the sequence CGGUCAUAGUCAAGAUGGATT against KRT85, the median seed-adjusted z-score was inactive: -0.126.

Consider GGACAAAGUAAAUAAUUCATT against ELK4, for which the median seed-adjusted z-score was inactive: 0.235.
